The source of these data is publication PMC7796460, “Relation of Metal-Binding Property and Selective Toxicity of 8-Hydroxyquinoline Derived Mannich Bases Targeting Multidrug Resistant Cancer Cells” (Cancers, 2021).

This data set is described as follows: DCFDA oxidation, cell free control. Particulars: 2 h.
The mark [1] stands for this setting: 6.25 µM, presence of 5 mM NAC (brackets).
Setting [2] is: 12.5 µM, presence of 5 mM NAC (brackets).
[3] abbreviates: 25 µM, presence of 5 mM NAC (brackets).
Setting [4] is: 50 µM, presence of 5 mM NAC (brackets).

For `Oc1c(CN2CCCCC2)cc(Cl)c2cccnc12` [Compound 5-Cl-Q-3], the “Fold change in fluorescence (DCFDA)” value by setting is: (6.25 µM) 2.088± 1.94; under setting [1], 3.961± 2.13; (12.5 µM) 1.760± 0.97; under setting [2], 4.868± 3.72; (25 µM) 2.156± 1.85; under setting [3], 5.140± 3.72. Further, the “Fold change in fluorescence (DCFDA)” value came out at 1.849± 1.53 (50 µM) and 4.642± 2.74 under setting [4].
As for `Oc1c(CN2CCOCC2)cc(Cl)c2cccnc12` [Compound 5-Cl-Q-2], the “Fold change in fluorescence (DCFDA)” value worked out at 1.920± 1.42 (6.25 µM); 2.823± 1.17 under setting [1]; 2.196± 1.53 (12.5 µM); 4.603± 3.89 under setting [2]; 2.732± 2.28 (25 µM); 3.304± 1.33 under setting [3]. The “Fold change in fluorescence (DCFDA)” value runs as follows: (50 µM) 2.435± 1.51; under setting [4], 3.799± 3.46.
With `Oc1c(CNCc2ccccc2F)cc(Cl)c2cccnc12` [Compound Q-4, 5-chloro-7-((2-fluorobenzylamino)methyl)quinolin-8-ol], the “Fold change in fluorescence (DCFDA)” value is, setting by setting: (6.25 µM) 0.924± 0.45; under setting [1], 5.061± 1.94; (12.5 µM) 0.864± 0.34; under setting [2], 7.004± 4.76; (25 µM) 0.745± 0.29; under setting [3], 6.141± 2.99. Also, the “Fold change in fluorescence (DCFDA)” value is on record as 1.462± 1.42 (50 µM) and 4.679± 1.90 under setting [4].
For `Oc1ccc(Cl)c2cccnc12` [Compound 5-Cl-Q-1], the “Fold change in fluorescence (DCFDA)” value (6.25 µM) is listed as 1.175± 0.32; the “Fold change in fluorescence (DCFDA)” value under setting [1] is 2.112± 1.18; the “Fold change in fluorescence (DCFDA)” value (12.5 µM) stood at 1.214± 0.43; the “Fold change in fluorescence (DCFDA)” value under setting [2] was 1.858± 0.92; the “Fold change in fluorescence (DCFDA)” value (25 µM) worked out at 1.271± 0.88; the “Fold change in fluorescence (DCFDA)” value under setting [3] was found to be 2.200± 1.14. Besides, the “Fold change in fluorescence (DCFDA)” value reads like this: (50 µM) 1.011± 0.50; under setting [4], 1.730± 1.05.
In the case of `Oc1c(CN2CCOCC2)ccc2cccnc12` [Compound Q-2, 7-(morpho-lino-methyl)quinolin-8-ol], the “Fold change in fluorescence (DCFDA)” value came to 1.266± 0.45 (6.25 µM); 1.129± 0.42 under setting [1]; 1.297± 0.61 (12.5 µM); 1.351± 0.67 under setting [2]; 1.308± 0.69 (25 µM); 1.461± 0.44 under setting [3]. Further, the “Fold change in fluorescence (DCFDA)” value by setting is: (50 µM) 2.350± 2.19; under setting [4], 1.472± 0.53.
`Oc1c(CN2CCCCC2)ccc2cccnc12` [Compound Q-3, 7-(piperidin-1-ylmethyl)quinolin-8-ol]: the “Fold change in fluorescence (DCFDA)” value came to 0.823± 0.17 (6.25 µM); 1.297± 0.58 under setting [1]; 1.114± 0.53 (12.5 µM); 1.516± 0.52 under setting [2]; 1.103± 0.45 (25 µM); 1.683± 0.58 under setting [3]. Besides, the “Fold change in fluorescence (DCFDA)” value is reported as 1.076± 0.38 (50 µM) and 1.868± 0.71 under setting [4].
As to `Oc1cccc2cccnc12` [Compound Q-1, 8-Hydroxyquinoline], the “Fold change in fluorescence (DCFDA)” value is, setting by setting: (6.25 µM) 1.098± 0.50; under setting [1], 1.307± 0.23; (12.5 µM) 0.891± 0.24; under setting [2], 1.262± 0.26; (25 µM) 0.917± 0.35; under setting [3], 1.223± 0.39. For the same compound, the “Fold change in fluorescence (DCFDA)” value (50 µM) worked out at 1.094± 0.65 and the “Fold change in fluorescence (DCFDA)” value under setting [4] came to 1.167± 0.51.
Consider “7-(2-fluorobenzyl-aminomethyl)-8-hydroxyquinoline hydrochloride [De-Cl-Q-4]”, for which the “Fold change in fluorescence (DCFDA)” value was found to be 1.684± 2.02 (6.25 µM); 3.020± 0.79 under setting [1]; 1.437± 0.88 (12.5 µM); 4.085± 1.53 under setting [2]; 1.648± 1.19 (25 µM); 7.474± 4.04 under setting [3]. The “Fold change in fluorescence (DCFDA)” value (50 µM) was 2.248± 1.31 and the “Fold change in fluorescence (DCFDA)” value under setting [4] came out at 7.609± 3.35.
